Among all 260,000 compounds or so, about 1,500 (0.58%) were called active. The inconclusive results got no clear call from the source; some entries with a clear call stand among them for comparison.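 The calls were made as follows: active = inhibition above a set limit at one or more doses, reproduced on every date tested; inconclusive = results disagree between test dates, or hit never tested in dose response; inactive = the rest.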
target: Virion infectivity factor (Human immunodeficiency virus type 1 group M subtype B (isolate BH10)) + Virion infectivity factor (Human immunodeficiency virus type 1 group M subtype B (isolate BRU/LAI)) + Virion infectivity factor (Human immunodeficiency virus type 1 group M subtype B (isolate PCV12)) + Virion infectivity factor (Human immunodeficiency virus type 1 group M subtype B (isolate HXB2)) + DNA dC->dU-editing enzyme APOBEC-3G (Homo sapiens) (UniProt P69720+P69721+P69722+P69723+Q9HC16); experiment: inhibitors of Vif binding to APOBEC3G peptide, primary screen, biochemical, TR-FRET, GST-Vif 1-94, biotin-A3G peptide, dose response retest (AID 1117319); settings: stronger effect = higher value;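 also: Vif residues 1-94 fused to GST binding biotinylated APOBEC3G peptide 110-148; 0% = full assay without inhibitor and 100% = GST in place of GST-Vif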

Sequences of proteins named here, by UniProt entry; tags and fusion partners are left off. A change or cut given only in a name is not applied to a line headed by its entry.
UniProt P69720: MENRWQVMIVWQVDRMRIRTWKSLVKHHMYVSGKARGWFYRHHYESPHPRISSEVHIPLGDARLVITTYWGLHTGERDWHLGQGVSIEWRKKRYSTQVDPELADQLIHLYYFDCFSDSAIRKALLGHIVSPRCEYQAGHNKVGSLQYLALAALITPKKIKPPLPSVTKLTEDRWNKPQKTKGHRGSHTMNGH
UniProt P69721: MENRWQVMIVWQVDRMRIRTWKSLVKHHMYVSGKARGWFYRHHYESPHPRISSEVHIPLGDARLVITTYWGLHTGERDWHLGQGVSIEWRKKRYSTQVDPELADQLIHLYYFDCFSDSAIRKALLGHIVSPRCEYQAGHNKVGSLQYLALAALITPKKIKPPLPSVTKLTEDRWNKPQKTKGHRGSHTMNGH
UniProt P69722: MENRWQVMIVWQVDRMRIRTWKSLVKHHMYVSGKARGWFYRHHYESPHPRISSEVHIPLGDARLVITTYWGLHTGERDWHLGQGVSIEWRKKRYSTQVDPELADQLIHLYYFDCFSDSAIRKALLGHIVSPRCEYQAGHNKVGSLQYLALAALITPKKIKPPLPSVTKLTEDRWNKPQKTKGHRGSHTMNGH
UniProt P69723: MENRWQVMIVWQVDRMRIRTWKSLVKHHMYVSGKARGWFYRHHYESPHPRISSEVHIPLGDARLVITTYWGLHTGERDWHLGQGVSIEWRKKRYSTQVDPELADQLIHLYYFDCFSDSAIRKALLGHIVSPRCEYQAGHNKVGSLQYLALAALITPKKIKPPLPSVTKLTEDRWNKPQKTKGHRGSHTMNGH
UniProt Q9HC16: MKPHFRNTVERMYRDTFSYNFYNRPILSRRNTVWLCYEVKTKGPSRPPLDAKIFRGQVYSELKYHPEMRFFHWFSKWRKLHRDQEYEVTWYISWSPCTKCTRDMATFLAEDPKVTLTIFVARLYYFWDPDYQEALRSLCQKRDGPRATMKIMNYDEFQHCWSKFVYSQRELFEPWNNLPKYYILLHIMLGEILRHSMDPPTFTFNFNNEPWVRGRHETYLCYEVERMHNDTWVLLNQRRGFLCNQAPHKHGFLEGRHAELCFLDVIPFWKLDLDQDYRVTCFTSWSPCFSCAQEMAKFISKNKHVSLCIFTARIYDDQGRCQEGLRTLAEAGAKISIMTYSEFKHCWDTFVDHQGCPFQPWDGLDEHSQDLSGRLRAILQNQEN

| Structure (SMILES) | inhibition |
| --- | --- |
| CC(C)n1cnc2cc(NCc3ccco3)ccc21 | inconclusive: 34.3% |
| O=C(CCNC(=O)c1ccccc1Cl)Nc1nnc(C2CC2)s1 | inconclusive: 33.3% |
| COc1ccccc1N1C(=O)CC(Nc2ccc(N3CCOCC3)cc2)C1=O (centres undefined) | inconclusive: 80% |
| O=C(CCCn1c(=O)c2cccn2c2cccnc21)NCCc1ccc(Cl)cc1 | inconclusive: 35.7% |
| COc1cc(/C=C(\NC(C)=O)C(=O)Nc2cccc(O)c2)ccc1OC(C)=O | inconclusive: 42.6% |
| COc1ccc(-c2noc(C3CCCN(C(=O)c4cccs4)C3)n2)cc1 (centres undefined) | inconclusive: 15.2% |
| O=C(Nc1nc2ccccc2s1)C1CCCO1 (centres undefined) | inconclusive: 53% |
| CC1=C/C(=N\OS(=O)(=O)c2ccccc2)C(C)=CC1=O | inactive: 19.9% |
| Cc1ccc2cccc(Oc3nnnn3-c3ccccc3)c2n1 | inconclusive: 42.8% |
| Cc1ccccc1CNC(=O)c1ccc(Cl)c([N+](=O)[O-])c1 | inactive: 3.74% |
| COc1ccc(N=C(N)SCc2ccccn2)cc1 | inconclusive: 50.6% |
| Cn1c(CSCc2ccc(F)cc2)nnc1SCC(=O)Nc1cccc(C(=O)O)c1 | inconclusive: 50.9% |
| Cc1cc(C)nc(N/N=C/c2ccccc2OCc2cccc(Br)c2)n1 | inconclusive: 47.9% |
| COc1cc(C(=O)N[C@H](C(=O)Nc2nnc(C3CC3)s2)C(C)C)cc(OC)c1OC | inconclusive: 63.2% |
| CC(=O)/C(=N\Nc1ccccc1)Sc1nncn1C | inconclusive: 52.8% |
| CCCC(=O)c1ccc(N2CCN(S(=O)(=O)c3ccc(C)cc3)CC2)c(F)c1 | inconclusive: 40.9% |
| CCNc1nc(NCC)nc(N/N=C/c2ccc(O)c(O)c2)n1 | inconclusive: 42.5% |
| CC1(C)CC(=O)C2=C(C1)OC1=C(C(=O)CC(C)(C)C1)C2c1ccc(O)cc1O | inconclusive: 38.6% |
| CC(C)c1ccc(C(C(=O)NC2CCCCC2)N(C(=O)c2ccccn2)c2cccnc2)cc1 (centres undefined) | inconclusive: 55.1% |
| COc1ccc(S(=O)(=O)ON=C2CC(C)(C)N(C(C)=O)C(C)(C)C2)cc1 | inconclusive: 38.7% |
| CCN1CCN(C(C)C(=O)NC2CCCCC2)CC1 (centres undefined) | inconclusive: 38.7% |
| COc1ccc(OC)c(C(Nc2ccccc2)P(=O)(OC(C)C)OC(C)C)c1 (centres undefined) | inconclusive: 41.4% |
| O=C(/C=C/c1ccco1)Nc1ccc(Oc2ccc(Cl)cc2)cc1 | inconclusive: 40.7% |

| Structure (SMILES) | inhibition |
| --- | --- |
| CCOc1ccc(N(CC(=O)NCc2ccc(OC)cc2)S(=O)(=O)c2c(C)noc2C)cc1 | inconclusive: 53.3% |
| O=C1CSC(=S)N1/N=C/c1ccc(O)c([N+](=O)[O-])c1 | inconclusive: 41.5% |
| COc1ccccc1NC(=O)CCN1CC(C)OC(C)C1 (centres undefined) | inconclusive: 34.5% |
| CCOc1ccccc1NS(=O)(=O)c1cccs1 | inconclusive: 40% |
| Cc1nn(CCOc2ccccc2)c(=O)n1-c1ccccc1 | inconclusive: 42.9% |
| CC(C)(C)Nc1scc(-c2ccccc2)[n+]1-c1ccccc1 | inconclusive: 39.1% |
| CCCNC(=O)Cn1cnc2sc(C(=O)N3CCCC(C(=O)OCC)C3)c(C)c2c1=O (centres undefined) | inconclusive: 59.6% |
| CCCOc1ccc(C2NC(=S)NC(c3ccccc3)=C2C(=O)Nc2ccc(C)cc2)cc1OC (centres undefined) | inconclusive: 38.3% |
| COc1ccc(/C=N/NC(=O)CNC(=O)COc2ccccc2)cc1 | inconclusive: 39.5% |
| O=C(c1ccccc1O)N1CCOCC1 | inactive: -1.64% |
| Cc1ccc(N2C(=O)C(Cl)=C(Nc3c(C)n(C)n(-c4ccccc4)c3=O)C2=O)cc1 | inconclusive: 37.8% |
| O=C(/C=C/c1ccccc1)Nn1cnnc1 | inactive: -6.05% |
| NS(=O)(=O)c1ccc(Nc2nc(-c3ccc4ccccc4c3)cs2)cc1 | inconclusive: 41.7% |
| CN(Cc1ccccc1)C(=O)COC(=O)c1ccccc1NS(=O)(=O)c1cccc(N)c1 | inconclusive: 47.9% |
| CCOC(=O)C1=C(C)N(C)C(=S)NC1c1ccc(Cl)cc1Cl (centres undefined) | inconclusive: 36% |
| N/C(=N\NC(=O)c1cccs1)c1cc2ccccc2oc1=O | inconclusive: 40.5% |
| COC(=O)C(CC(=O)Nc1cc(C)ccc1C)Nc1ccccc1OC (centres undefined) | inconclusive: 48% |
| Cc1noc(C)c1CSc1nc2ccccc2nc1NS(=O)(=O)c1ccc(Cl)cc1 | inconclusive: 38.6% |
| COC(=O)c1ccccc1NC(=S)N1CCN(c2ccccn2)CC1 | inconclusive: 50.3% |
| CC(NC(=O)Cn1nc(-c2ccccc2)c2ccccc2c1=O)c1ccccc1 (centres undefined) | inconclusive: 60.2% |
| COCCNc1oc(/C=C/c2ccc(F)cc2)nc1S(=O)(=O)c1ccccc1 | inconclusive: 49.4% |
| CCN(CC)S(=O)(=O)c1ccc2[nH]c(=O)cc(C(=O)Nc3ccc(C)c(S(=O)(=O)N(CC)CC)c3)c2c1 | inconclusive: 33.7% |
| COc1cccc(NC(=O)CN2C(=O)COc3ccc(S(=O)(=O)N4CCC(C)CC4)cc32)c1 | inactive: -1.2% |

Grouped by structure, those above with a halogen (11)

| Structure (SMILES) | inhibition |
| --- | --- |
| O=C(CCNC(=O)c1ccccc1Cl)Nc1nnc(C2CC2)s1 | inconclusive: 33.3% |
| O=C(CCCn1c(=O)c2cccn2c2cccnc21)NCCc1ccc(Cl)cc1 | inconclusive: 35.7% |
| Cc1ccccc1CNC(=O)c1ccc(Cl)c([N+](=O)[O-])c1 | inactive: 3.74% |
| Cn1c(CSCc2ccc(F)cc2)nnc1SCC(=O)Nc1cccc(C(=O)O)c1 | inconclusive: 50.9% |
| Cc1cc(C)nc(N/N=C/c2ccccc2OCc2cccc(Br)c2)n1 | inconclusive: 47.9% |
| CCCC(=O)c1ccc(N2CCN(S(=O)(=O)c3ccc(C)cc3)CC2)c(F)c1 | inconclusive: 40.9% |
| O=C(/C=C/c1ccco1)Nc1ccc(Oc2ccc(Cl)cc2)cc1 | inconclusive: 40.7% |
| Cc1ccc(N2C(=O)C(Cl)=C(Nc3c(C)n(C)n(-c4ccccc4)c3=O)C2=O)cc1 | inconclusive: 37.8% |
| CCOC(=O)C1=C(C)N(C)C(=S)NC1c1ccc(Cl)cc1Cl (centres undefined) | inconclusive: 36% |
| Cc1noc(C)c1CSc1nc2ccccc2nc1NS(=O)(=O)c1ccc(Cl)cc1 | inconclusive: 38.6% |
| COCCNc1oc(/C=C/c2ccc(F)cc2)nc1S(=O)(=O)c1ccccc1 | inconclusive: 49.4% |

The listing continues.

| Structure (SMILES) | inhibition |
| --- | --- |
| COC(=O)c1cc(OC)c(OC)cc1NC(=O)c1ccc(OC)cc1 | inconclusive: 43% |
| CSc1cccc(NC(=O)C2CCCN(S(=O)(=O)c3cnc[nH]3)C2)c1 (centres undefined) | inconclusive: 43.1% |
| O=C(Cc1ccccc1F)c1ccc(O)cc1O | inconclusive: 43.9% |
| CCOc1ccc(Oc2nc(Nc3ccc(C)cc3)nc(N(C)C)n2)nn1 | inconclusive: 51% |
| O=C(c1c[nH]c(=O)n(-c2ccccc2)c1=O)N1CCc2ccccc21 | inconclusive: 50% |
| O=S(=O)(O)CCN1CCOCC1 | inconclusive: 14.5% |
| Cc1ccc(-c2nc(CS(=O)CC(=O)NC3CCCC3)c(C)o2)cc1 (centres undefined) | inconclusive: 46.1% |
| COc1ccc(-c2nc3cccc(C)n3c2NCc2ccco2)cc1OC | inconclusive: 54.6% |
| Cc1ccc(/C=C2/SC(=O)NC2=S)o1 | inconclusive: 61% |
| CC(C)N1CCC(=O)NC1=O | inactive: 3.79% |
| O=c1cc(CSc2ccc(Cl)cc2)[nH]c2[nH]n(-c3ccccc3)c(=O)c12 | inconclusive: 45% |
| O=C(Nc1ccc(F)cc1)N(Cc1ccco1)Cc1cc2cc3c(cc2[nH]c1=O)OCO3 | inconclusive: 44.7% |
| Cc1ccc(/C=C/S(=O)(=O)NCC(=O)OCC(=O)NCc2ccccc2)cc1 | inconclusive: 47.9% |
| CN1CCN(C(=O)CC2C(=O)NCCN2Cc2ccc(-c3ccccc3)cc2)CC1 (centres undefined) | inconclusive: 48.4% |
| CCC1CCCN1Cn1cnc2c([nH]c3ccc(OC)cc32)c1=O (centres undefined) | inconclusive: 39.5% |
| CC(C)CC(=O)Nc1ncc([N+](=O)[O-])s1 | inactive: 8.92% |
| Cc1nc(S(=O)(=O)c2ccc(Cl)cc2)nc2c1CCC2 | inconclusive: 33.3% |
| C=CCc1cccc(/C=N/c2ncccc2O)c1O | inconclusive: 60.9% |
| O=C(O)C1CCCCC1C(=O)Nc1ccccn1 (centres undefined) | inconclusive: 33.6% |
| CCCC(=O)OCC(=O)Nc1ccc2[nH]c(=O)[nH]c2c1 | inconclusive: 58.6% |
| COc1cccc(CN2CCC(n3nccc3NC(=O)C3CC3)CC2)c1 | inactive: 3.21% |
| COc1ccc([C@@H]2C[C@H]3[C@@H](CN2S(=O)(=O)c2ccccc2)C(=O)C[C@@H](c2ccccc2F)N3S(=O)(=O)c2ccc(C)cc2)cc1 | inactive: -4.64% |
| Cc1ccc(S(=O)(=O)NC(=O)COc2ccccc2C(N)=O)cc1 | inconclusive: 58.2% |

| Structure (SMILES) | inhibition |
| --- | --- |
| Cc1noc(NS(=O)(=O)c2ccc(N/C=C\C(=O)c3ccc(Br)cc3)cc2)c1C | inconclusive: 36.4% |
| COc1ccc(S(=O)(=O)n2nc(OC(=O)c3c(-c4ccccc4Cl)noc3C)cc2N)cc1 | inconclusive: 34.2% |
| O=C(N/N=C/c1cc([N+](=O)[O-])cc([N+](=O)[O-])c1O)/C(=C\c1cccs1)NC(=O)c1ccccc1 | inconclusive: 45.5% |
| O=C(NCc1ccco1)C(=O)NCC(c1ccco1)N1CCOCC1 (centres undefined) | inconclusive: 43.8% |
| O=C(NCc1ccccn1)c1ccc(=O)oc1 | inactive: 11.6% |
| COc1ccc(S(=O)(=O)N2CCOCC2)cc1NC(=O)CSc1nnc(C2CC2)n1N | inconclusive: 44.1% |
| O=C(O)COc1ccccc1-c1ccccc1 | inactive: -0.72% |
| CCOC(=O)c1c(N)sc2c1CCSC2 | inconclusive: 42.4% |
| Cc1nc(NC(=O)c2ccc(Cl)cc2)sc1-c1csc(Nc2cccc(F)c2)n1 | inconclusive: 33.1% |
| CC1=CN2C(=N)/C(=C/c3ccco3)C(=O)N=C2S1 | inactive: 14.9% |
| CN(C(=O)COc1ccc(Cl)cc1Cl)c1nnc(C23CC4CC(CC(C4)C2)C3)s1 | inconclusive: 36.7% |
| c1coc(-c2nn3c(-c4ccco4)nnc3s2)c1 | inactive: 24.5% |
| C#CCn1c(-c2cccs2)nc2ccccc21 | inconclusive: 52.7% |
| CC(C)(C)n1nnnc1C(c1ccncc1)N1CCN(c2ccc(O)cc2)CC1 (centres undefined) | inconclusive: 44.3% |
| O=C(NCC1CCCO1)c1ccc2c(=O)n(-c3ccccc3)c(=S)[nH]c2c1 (centres undefined) | inconclusive: 47.4% |
| Cc1ncn2cc(-c3ccc(Cl)cc3Cl)[nH]c(=O)c12 | inconclusive: 36.7% |
| CC(=O)OCC(=O)[C@@]1(O)[C@H](C)C[C@H]2[C@@H]3CCC4=CC(=O)C=C[C@]4(C)[C@@]3(F)[C@@H](O)C[C@@]21C | inconclusive: 40.5% |
| Cc1ccc(Cl)cc1N1CCN(CC(O)COCc2ccco2)CC1 (centres undefined) | inconclusive: 48.2% |
| CCN(CC(=O)NCc1ccc(F)cc1)C(=O)CCNS(=O)(=O)c1cccc(C)c1 | inconclusive: 33.7% |
| COC(=O)CSc1nnc(CNC(=O)c2cccc(C)c2)n1-c1ccccc1OC | inactive: 6.5% |

Part of the list above, set out differently:
O=C(Cc1ccccc1F)c1ccc(O)cc1O
  inhibition: inconclusive: 43.9%
CCOc1ccc(Oc2nc(Nc3ccc(C)cc3)nc(N(C)C)n2)nn1
  inhibition: inconclusive: 51%

Source: PubChem BioAssay AID1117319 (Southern Research Institute, 2015)
